Reference: the supplement of paper PMC10849652
Some of the results follow.

Sequences of proteins named here, by UniProt entry; tags and fusion partners are left off. A change or cut given only in a name is not applied to a line headed by its entry.
UniProt Q7RTP6, whole entry, looked up: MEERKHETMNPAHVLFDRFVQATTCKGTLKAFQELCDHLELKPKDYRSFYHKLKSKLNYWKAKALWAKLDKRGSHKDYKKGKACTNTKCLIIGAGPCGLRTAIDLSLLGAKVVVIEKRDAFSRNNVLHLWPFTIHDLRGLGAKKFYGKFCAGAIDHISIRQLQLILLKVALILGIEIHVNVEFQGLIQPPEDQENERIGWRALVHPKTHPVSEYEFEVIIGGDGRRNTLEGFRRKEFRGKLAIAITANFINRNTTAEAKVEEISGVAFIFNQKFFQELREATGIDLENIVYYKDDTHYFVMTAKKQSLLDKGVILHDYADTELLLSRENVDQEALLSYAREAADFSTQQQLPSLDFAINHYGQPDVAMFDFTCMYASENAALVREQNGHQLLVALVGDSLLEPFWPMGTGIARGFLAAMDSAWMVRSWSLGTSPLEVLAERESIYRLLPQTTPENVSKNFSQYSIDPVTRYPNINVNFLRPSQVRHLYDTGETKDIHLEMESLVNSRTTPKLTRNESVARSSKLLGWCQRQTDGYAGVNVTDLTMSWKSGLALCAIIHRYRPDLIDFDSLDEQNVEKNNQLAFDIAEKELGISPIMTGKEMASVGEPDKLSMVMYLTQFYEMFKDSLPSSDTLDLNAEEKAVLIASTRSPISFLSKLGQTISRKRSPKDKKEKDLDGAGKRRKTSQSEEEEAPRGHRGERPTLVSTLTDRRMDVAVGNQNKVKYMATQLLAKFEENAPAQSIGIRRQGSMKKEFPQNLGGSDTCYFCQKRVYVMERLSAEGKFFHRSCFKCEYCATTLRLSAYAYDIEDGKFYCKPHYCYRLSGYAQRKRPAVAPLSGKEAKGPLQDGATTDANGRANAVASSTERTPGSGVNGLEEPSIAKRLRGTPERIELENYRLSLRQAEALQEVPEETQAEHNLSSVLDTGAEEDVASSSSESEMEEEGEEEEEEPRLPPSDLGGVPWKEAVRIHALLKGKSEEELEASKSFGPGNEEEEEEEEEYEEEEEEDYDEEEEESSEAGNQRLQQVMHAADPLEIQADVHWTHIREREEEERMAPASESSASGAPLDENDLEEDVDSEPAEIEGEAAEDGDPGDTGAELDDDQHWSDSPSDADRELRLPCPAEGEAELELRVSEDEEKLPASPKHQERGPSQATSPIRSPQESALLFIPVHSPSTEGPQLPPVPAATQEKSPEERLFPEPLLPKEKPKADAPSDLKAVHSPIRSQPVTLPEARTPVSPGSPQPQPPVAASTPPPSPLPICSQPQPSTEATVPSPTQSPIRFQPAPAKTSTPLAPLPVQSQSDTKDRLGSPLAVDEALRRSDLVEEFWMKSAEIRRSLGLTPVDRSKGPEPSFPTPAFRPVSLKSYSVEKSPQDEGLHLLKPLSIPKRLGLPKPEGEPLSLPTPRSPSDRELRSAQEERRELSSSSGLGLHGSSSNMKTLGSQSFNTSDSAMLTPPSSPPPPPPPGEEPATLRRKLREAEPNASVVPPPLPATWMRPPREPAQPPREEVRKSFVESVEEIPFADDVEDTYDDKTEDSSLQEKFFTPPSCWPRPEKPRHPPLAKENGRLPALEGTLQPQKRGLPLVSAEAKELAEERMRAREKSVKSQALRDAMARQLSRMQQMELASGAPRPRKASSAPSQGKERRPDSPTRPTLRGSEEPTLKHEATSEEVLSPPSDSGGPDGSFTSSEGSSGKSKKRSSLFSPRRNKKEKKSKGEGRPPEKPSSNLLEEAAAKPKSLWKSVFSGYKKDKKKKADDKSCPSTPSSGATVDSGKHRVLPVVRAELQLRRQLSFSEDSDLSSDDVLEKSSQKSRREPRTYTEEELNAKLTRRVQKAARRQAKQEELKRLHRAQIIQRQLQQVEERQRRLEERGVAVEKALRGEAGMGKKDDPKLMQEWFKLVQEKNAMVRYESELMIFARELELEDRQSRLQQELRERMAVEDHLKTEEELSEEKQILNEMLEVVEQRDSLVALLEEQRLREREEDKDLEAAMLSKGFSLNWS
UniProt P29372, whole entry, looked up: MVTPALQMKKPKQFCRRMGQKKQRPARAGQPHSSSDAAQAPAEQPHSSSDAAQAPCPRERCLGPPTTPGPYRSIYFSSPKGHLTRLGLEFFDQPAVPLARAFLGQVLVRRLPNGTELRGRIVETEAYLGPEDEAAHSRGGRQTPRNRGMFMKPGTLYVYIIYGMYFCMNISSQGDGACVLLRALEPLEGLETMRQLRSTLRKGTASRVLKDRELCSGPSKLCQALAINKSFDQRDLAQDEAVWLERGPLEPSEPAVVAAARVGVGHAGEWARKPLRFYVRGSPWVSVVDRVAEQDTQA
UniProt O96007: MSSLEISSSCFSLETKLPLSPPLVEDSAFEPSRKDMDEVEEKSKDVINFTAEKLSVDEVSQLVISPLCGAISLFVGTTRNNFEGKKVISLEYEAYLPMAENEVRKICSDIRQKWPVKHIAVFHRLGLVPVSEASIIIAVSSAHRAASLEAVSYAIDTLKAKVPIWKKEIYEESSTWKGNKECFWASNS
UniProt Q8N4V1: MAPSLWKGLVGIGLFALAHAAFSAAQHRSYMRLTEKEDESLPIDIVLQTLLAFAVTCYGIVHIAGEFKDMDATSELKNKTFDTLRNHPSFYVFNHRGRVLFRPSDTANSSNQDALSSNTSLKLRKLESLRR
UniProt Q9BV20: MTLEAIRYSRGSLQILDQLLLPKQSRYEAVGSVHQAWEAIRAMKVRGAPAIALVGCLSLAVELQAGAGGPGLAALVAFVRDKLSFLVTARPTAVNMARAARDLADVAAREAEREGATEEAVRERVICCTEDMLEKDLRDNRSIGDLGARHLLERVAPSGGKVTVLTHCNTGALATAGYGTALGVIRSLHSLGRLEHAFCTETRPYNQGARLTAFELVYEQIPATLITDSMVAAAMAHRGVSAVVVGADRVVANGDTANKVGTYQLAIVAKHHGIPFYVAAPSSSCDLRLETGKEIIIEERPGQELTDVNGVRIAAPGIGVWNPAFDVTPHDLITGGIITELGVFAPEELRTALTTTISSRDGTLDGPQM
UniProt Q9UBU8, whole entry, looked up: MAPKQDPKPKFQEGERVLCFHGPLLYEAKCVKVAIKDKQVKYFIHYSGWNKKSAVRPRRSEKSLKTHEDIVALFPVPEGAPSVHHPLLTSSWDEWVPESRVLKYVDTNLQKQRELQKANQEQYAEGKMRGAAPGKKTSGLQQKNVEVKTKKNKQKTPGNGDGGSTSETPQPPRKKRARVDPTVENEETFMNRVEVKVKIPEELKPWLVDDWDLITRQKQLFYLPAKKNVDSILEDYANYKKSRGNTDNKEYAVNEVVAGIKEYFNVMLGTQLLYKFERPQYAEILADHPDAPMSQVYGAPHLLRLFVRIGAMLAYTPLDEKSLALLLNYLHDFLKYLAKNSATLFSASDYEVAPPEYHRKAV
UniProt Q99797: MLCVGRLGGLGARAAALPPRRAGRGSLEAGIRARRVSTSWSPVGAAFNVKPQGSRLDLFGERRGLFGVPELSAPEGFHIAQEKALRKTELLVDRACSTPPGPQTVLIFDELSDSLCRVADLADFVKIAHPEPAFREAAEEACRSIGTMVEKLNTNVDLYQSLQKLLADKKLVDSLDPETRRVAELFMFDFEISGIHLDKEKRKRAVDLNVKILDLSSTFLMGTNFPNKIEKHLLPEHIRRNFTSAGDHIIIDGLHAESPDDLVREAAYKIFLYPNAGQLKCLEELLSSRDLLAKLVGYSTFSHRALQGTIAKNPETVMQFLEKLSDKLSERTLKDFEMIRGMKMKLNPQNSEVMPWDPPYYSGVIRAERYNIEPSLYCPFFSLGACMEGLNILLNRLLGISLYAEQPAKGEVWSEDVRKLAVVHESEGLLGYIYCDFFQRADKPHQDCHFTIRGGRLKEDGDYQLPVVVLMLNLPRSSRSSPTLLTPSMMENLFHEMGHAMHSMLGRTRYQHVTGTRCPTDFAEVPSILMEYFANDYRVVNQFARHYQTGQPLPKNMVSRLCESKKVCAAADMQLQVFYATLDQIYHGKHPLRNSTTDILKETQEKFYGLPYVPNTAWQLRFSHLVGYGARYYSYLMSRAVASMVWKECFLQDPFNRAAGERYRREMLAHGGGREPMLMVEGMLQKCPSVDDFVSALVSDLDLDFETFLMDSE
UniProt A9UHW6: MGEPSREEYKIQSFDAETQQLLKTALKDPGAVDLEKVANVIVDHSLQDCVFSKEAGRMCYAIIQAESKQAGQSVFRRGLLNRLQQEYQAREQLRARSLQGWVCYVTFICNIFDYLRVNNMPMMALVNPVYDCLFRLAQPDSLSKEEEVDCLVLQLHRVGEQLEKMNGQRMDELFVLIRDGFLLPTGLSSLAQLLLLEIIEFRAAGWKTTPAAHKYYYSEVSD
UniProt Q9H8M7: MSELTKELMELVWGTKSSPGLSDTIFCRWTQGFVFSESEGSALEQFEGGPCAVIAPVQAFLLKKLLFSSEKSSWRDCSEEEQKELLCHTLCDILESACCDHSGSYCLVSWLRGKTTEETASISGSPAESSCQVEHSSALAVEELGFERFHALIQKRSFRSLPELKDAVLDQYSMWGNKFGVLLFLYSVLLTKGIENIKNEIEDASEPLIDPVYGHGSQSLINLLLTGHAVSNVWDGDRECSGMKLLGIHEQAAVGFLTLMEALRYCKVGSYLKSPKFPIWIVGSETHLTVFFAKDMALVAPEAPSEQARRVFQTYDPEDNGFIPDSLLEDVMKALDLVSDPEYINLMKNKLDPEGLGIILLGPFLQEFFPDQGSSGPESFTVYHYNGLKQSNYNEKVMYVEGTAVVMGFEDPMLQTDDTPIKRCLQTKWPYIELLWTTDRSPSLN

Key:
Assay in all cases: log2 fold change, soluble protein after heating vs DMSO (PISA); higher = thermal stabilisation; K562 cells, 10 uM, 30 min; active = over 0.2 and 3.5 SD of the protein, either way, in both replicates (recomputed)
[1] = compound: CC[C@@H]1C(=O)N(C)c2cnc(Nc3ccc(C(=O)NC4CCN(C)CC4)cc3OC)nc2N1C1CCCC1
In short: (§1)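 K562 cells at 2×10^6 cells/mL were given 10 μM compound for 30 min. Aliquots then went through 3 min of heating across 48°C-58°C, were pooled, and were extracted in PBS with 0.5% NP-40 at 4°C, and the supernatant after 21,000xg for 90 min was quantified by TMTpro 16plex LC-MS/MS with channel sums equalised. Thermal stability relative to control samples, from duplicates, is given as log2 fold change.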

volasertib = compound: CC[C@@H]1C(=O)N(C)c2cnc(Nc3ccc(C(=O)N[C@H]4CC[C@H](N5CCN(CC6CC6)CC5)CC4)cc3OC)nc2N1C(C)C [volasertib]
In short: as §1

[2] = compound: CC[C@H](C)N1C=C(C2=C(C=C(C=C21)C3=CN=C(C=C3)N4CCNCC4)C(=O)NCC5=C(C=C(NC5=O)C)C)C
In short: as §1

epoxomicin = compound: CC[C@H](C)[C@@H](C(=O)N[C@@H]([C@@H](C)O)C(=O)N[C@@H](CC(C)C)C(=O)[C@]1(CO1)C)NC(=O)[C@H]([C@@H](C)CC)N(C)C(=O)C [epoxomicin]
In short: as §1

[3] = compound: CCn1c(C(=O)N(C2CC2)C2CC2)cc2c3c(ncn3C)c(Nc3cc(C)n(C)n3)nc21
In short: as §1

[4] = compound: CCn1cc(-c2ccnc3[nH]c(-c4cccc(CN(C)C)c4)cc23)c(-c2ccc(NC(=O)N(C)C)cc2)n1
In short: as §1

[5] = compound: CN(C)CC(=O)Nc1ccc2[nH]c(=O)c3ccccc3c2c1
In short: as §1

rosiglitazone = compound: CN(CCOC1=CC=C(C=C1)C[C@H]2C(=O)NC(=O)S2)C3=CC=CC=N3 (racemic) [rosiglitazone]
In short: as §1

[6] = compound: CN1C2=C(C3=C1C(=O)N(N=C3)CC4=CC(=CC=C4)N)SC(=C2)S(=O)C
In short: as §1

[7] = compound: CN1CCC(CNc2ccc3ncc(-c4cccc(OC(F)(F)F)c4)n3n2)CC1
In short: as §1

saracatinib = compound: CN1CCN(CCOc2cc(OC3CCOCC3)c3c(Nc4c(Cl)ccc5c4OCO5)ncnc3c2)CC1 [saracatinib]
In short: as §1

sotrastaurin = compound: CN1CCN(c2nc(C3=C(c4c[nH]c5ccccc45)C(=O)NC3=O)c3ccccc3n2)CC1 [sotrastaurin]
In short: as §1

alvocidib = compound: CN1CC[C@H](c2c(O)cc(O)c3c(=O)cc(-c4ccccc4Cl)oc23)[C@H](O)C1 [alvocidib]
In short: as §1

Tubastatin A = compound: CN1CCc2c(c3ccccc3n2Cc2ccc(C(=O)NO)cc2)C1 [Tubastatin A]
In short: as §1

[8] = compound: CNC(=O)C1=CC=CC=C1NC2=NC(=NC=C2Cl)NC3=C(C=C(C=C3)N4CCOCC4)OC
In short: as §1

defactinib = compound: CNC(=O)c1ccc(Nc2ncc(C(F)(F)F)c(NCc3nccnc3N(C)S(C)(=O)=O)n2)cc1 [defactinib]
In short: as §1

rucaparib = compound: CNCc1ccc(-c2[nH]c3cc(F)cc4c3c2CCNC4=O)cc1 [rucaparib]
In short: as §1

[9] = compound: CNc1nc(-c2ccc3c(N)n[nH]c3c2)cc(N2C[C@@H](C(=O)NC3CCCCC3)CC[C@H]2C)n1
In short: as §1

encorafenib = compound: COC(=O)N[C@@H](C)CNc1nccc(-c2cn(C(C)C)nc2-c2cc(Cl)cc(NS(C)(=O)=O)c2F)n1 [encorafenib]
In short: as §1

[10] = compound: COC(=O)[C@H](CCSC)NC(=O)C1=C(C=C(C=C1)NC[C@H](CS)N)C2=CC=CC=C2
In short: as §1

Measured: log2 fold change

MICAL3 (UniProt Q7RTP6)
inactive: [1] 0.036 | volasertib -0.103 | [2] 0.017 | epoxomicin -0.017 | [3] -0.054 | [4] -0.011 | [5] 0.027 | rosiglitazone 0.106 | [6] -0.007 | [7] -0.102 | saracatinib 0 | sotrastaurin -0.028 | alvocidib 0.118 | Tubastatin A 0.017 | [8] 0.059 | defactinib -0.077 | rucaparib 0.025 | [9] 0.012 | encorafenib 0.029 | [10] -0.011

MRPL45 (UniProt Q9BRJ2)
inactive: [1] 0.029 | volasertib 0.126 | [2] 0.098 | epoxomicin -0.062 | [3] -0.061 | [4] -0.069 | [5] 0.03 | rosiglitazone 0.023 | [6] 0.087 | [7] 0.101 | saracatinib -0.122 | sotrastaurin -0.076 | alvocidib 0.001 | Tubastatin A 0.056 | [8] -0.012 | defactinib 0.124 | rucaparib 0.12 | [9] 0.199 | encorafenib 0.057 | [10] -0.05

MRPL30 isoform 2 (UniProt Q8TCC3)
inactive: [1] 0.054 | volasertib 0.193 | [2] 0.026 | epoxomicin -0.059 | [3] -0.118 | [4] -0.005 | [5] -0.027 | rosiglitazone -0.048 | [6] 0.102 | [7] 0.145 | saracatinib -0.18 | sotrastaurin -0.041 | alvocidib 0.172 | Tubastatin A 0.141 | [8] -0.085 | defactinib 0.122 | rucaparib 0.144 | [9] 0.148 | encorafenib 0.158 | [10] -0.095

MPG (UniProt P29372)
inactive: [1] 0.062 | volasertib 0.068 | [2] 0.037 | epoxomicin -0.068 | [3] 0.034 | [4] -0.052 | [5] -0.068 | rosiglitazone 0.022 | [6] 0.022 | [7] -0.002 | saracatinib -0.002 | sotrastaurin -0.015 | alvocidib 0.026 | Tubastatin A 0.029 | [8] -0.02 | defactinib 0.042 | rucaparib 0.059 | [9] 0.077 | encorafenib 0.024 | [10] 0.054

MRPL17 (UniProt Q9NRX2)
inactive: [1] 0.062 | volasertib 0.255 | [2] 0.024 | epoxomicin -0.045 | [3] 0.009 | [4] 0.035 | [5] -0.044 | rosiglitazone -0.013 | [6] 0.155 | [7] 0.052 | saracatinib -0.129 | sotrastaurin -0.011 | alvocidib 0.014 | Tubastatin A 0.071 | [8] 0.036 | defactinib 0.162 | rucaparib 0.05 | [9] 0.078 | encorafenib 0.043 | [10] -0.044

MRPL22 (UniProt Q9NWU5)
inactive: [1] 0.05 | volasertib 0.176 | [2] -0.103 | epoxomicin -0.062 | [3] 0.026 | [4] 0.077 | [5] -0.052 | rosiglitazone 0.004 | [6] 0.11 | [7] 0.048 | saracatinib -0.186 | sotrastaurin 0.019 | alvocidib 0.063 | Tubastatin A 0.059 | [8] -0.051 | defactinib 0.194 | rucaparib 0.114 | [9] 0.119 | encorafenib 0.055 | [10] -0.108

MOCS2 (UniProt O96007)
inactive: [1] 0.057 | volasertib -0.056 | [2] -0.048 | epoxomicin 0.018 | [3] 0.026 | [4] -0.001 | [5] 0.019 | rosiglitazone 0.001 | [6] -0.034 | [7] -0.029 | saracatinib 0.014 | sotrastaurin 0.014 | alvocidib -0.057 | Tubastatin A 0.041 | [8] -0.033 | defactinib 0.007 | rucaparib -0.004 | [9] -0.072 | encorafenib -0.028 | [10] 0.025

MMGT1 isoform 2 (UniProt Q8N4V1)
inactive: [1] 0.052 | volasertib -0.057 | [2] 0.016 | epoxomicin 0.016 | [3] -0.004 | [4] 0.045 | [5] -0.044 | rosiglitazone -0.01 | [6] -0.055 | [7] -0.037 | saracatinib 0.048 | sotrastaurin -0.032 | alvocidib 0.002 | Tubastatin A -0.008 | [8] 0.04 | defactinib -0.022 | rucaparib -0.016 | [9] -0.022 | encorafenib 0 | [10] -0.032

MRI1 (UniProt Q9BV20)
inactive: [1] 0.018 | volasertib -0.029 | [2] -0.028 | epoxomicin 0.044 | [3] -0.027 | [4] -0.021 | [5] -0.004 | rosiglitazone 0.014 | [6] -0.014 | [7] 0 | saracatinib -0.023 | sotrastaurin -0.009 | alvocidib -0.024 | Tubastatin A 0.013 | [8] 0.005 | defactinib 0 | rucaparib -0.041 | [9] -0.034 | encorafenib -0.021 | [10] 0.028

MORF4L1 isoform 2 (UniProt Q9UBU8)
inactive: [1] 0.021 | volasertib -0.162 | [2] -0.016 | epoxomicin 0.193 | [3] 0.003 | [4] 0.006 | [5] -0.053 | rosiglitazone 0.013 | [6] 0.026 | [7] -0.048 | saracatinib -0.065 | sotrastaurin 0.043 | alvocidib -0.048 | Tubastatin A 0.021 | [8] -0.005 | defactinib -0.077 | rucaparib -0.062 | [9] -0.003 | encorafenib 0.085 | [10] 0.083

2 entries picked at random from the list so far:
MPG (UniProt P29372)
inactive: [1] 0.062 | volasertib 0.068 | [2] 0.037 | epoxomicin -0.068 | [3] 0.034 | [4] -0.052 | [5] -0.068 | rosiglitazone 0.022 | [6] 0.022 | [7] -0.002 | saracatinib -0.002 | sotrastaurin -0.015 | alvocidib 0.026 | Tubastatin A 0.029 | [8] -0.02 | defactinib 0.042 | rucaparib 0.059 | [9] 0.077 | encorafenib 0.024 | [10] 0.054

MMGT1 isoform 2 (UniProt Q8N4V1)
inactive: [1] 0.052 | volasertib -0.057 | [2] 0.016 | epoxomicin 0.016 | [3] -0.004 | [4] 0.045 | [5] -0.044 | rosiglitazone -0.01 | [6] -0.055 | [7] -0.037 | saracatinib 0.048 | sotrastaurin -0.032 | alvocidib 0.002 | Tubastatin A -0.008 | [8] 0.04 | defactinib -0.022 | rucaparib -0.016 | [9] -0.022 | encorafenib 0 | [10] -0.032

Next results

MRPL49 (UniProt Q13405)
inactive: [1] 0.07 | volasertib 0.092 | [2] 0.014 | epoxomicin 0.018 | [3] -0.044 | [4] 0.033 | [5] -0.128 | rosiglitazone 0.004 | [6] 0.094 | [7] 0.145 | saracatinib -0.179 | sotrastaurin -0.04 | alvocidib 0.035 | Tubastatin A 0.026 | [8] -0.065 | defactinib -0.019 | rucaparib 0.074 | [9] 0.067 | encorafenib 0.041 | [10] -0.059

MIPEP (UniProt Q99797)
inactive: [1] -0.085 | volasertib -0.073 | [2] 0.011 | epoxomicin 0.054 | [3] -0.036 | [4] -0.055 | [5] -0.002 | rosiglitazone 0.028 | [6] -0.063 | [7] -0.145 | saracatinib 0.032 | sotrastaurin 0 | alvocidib -0.074 | Tubastatin A 0.019 | [8] 0.018 | defactinib -0.064 | rucaparib -0.13 | [9] -0.038 | encorafenib -0.008 | [10] -0.031

MIF4GD isoform 3 (UniProt A9UHW6)
inactive: [1] 0.057 | volasertib 0.049 | [2] -0.023 | epoxomicin 0.076 | [3] -0.015 | [4] 0.018 | [5] 0.013 | rosiglitazone 0.027 | [6] -0.06 | [7] 0.033 | saracatinib 0.062 | sotrastaurin 0.031 | alvocidib -0.02 | Tubastatin A 0.027 | [8] 0.01 | defactinib -0.016 | rucaparib -0.075 | [9] 0.001 | encorafenib 0.096 | [10] -0.051

MRPL41 (UniProt Q8IXM3)
inactive: [1] 0.037 | volasertib 0.214 | [2] 0.042 | epoxomicin -0.046 | [3] -0.09 | [4] -0.021 | [5] 0.008 | rosiglitazone 0.009 | [6] 0.11 | [7] 0.083 | saracatinib -0.128 | sotrastaurin 0.01 | alvocidib 0.136 | Tubastatin A 0.108 | [8] 0.011 | defactinib 0.174 | rucaparib 0.114 | [9] 0.108 | encorafenib 0.057 | [10] -0.092

MRPL57 (UniProt Q9BQC6)
inactive: [1] 0.112 | volasertib 0.183 | [2] 0.061 | epoxomicin -0.075 | [3] -0.033 | [4] 0.007 | [5] -0.048 | rosiglitazone -0.074 | [6] 0.064 | [7] 0.006 | saracatinib -0.298 | sotrastaurin -0.004 | Tubastatin A 0.091 | [8] 0.023 | defactinib 0.197 | rucaparib 0.033 | [9] 0.118 | encorafenib 0.061 | [10] -0.048

MINDY3 (UniProt Q9H8M7)
inactive: [1] 0.052 | volasertib -0.061 | [2] 0.077 | epoxomicin -0.01 | [3] -0.008 | [4] -0.017 | [5] -0.018 | rosiglitazone 0.042 | [6] -0.063 | [7] 0.018 | saracatinib 0.035 | sotrastaurin 0.072 | alvocidib -0.011 | Tubastatin A 0.058 | [8] -0.047 | defactinib 0.005 | rucaparib -0.013 | [9] 0.039 | encorafenib -0.028 | [10] 0.044
